Values from PubChem BioAssay AID1259405 (NCATS, 2018).
Here is a random part of about 50,000 reagents. About 4,000 of all reagents (8%) count as active. 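Mouse siRNA library applied to hamster cells; one well for each siRNA.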 The numbers tell different reagents against one gene apart. Reagent sequences are not shown.

Screen: 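Mouse-designed siRNAs used to find CHO productivity engineering targets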 (primary screen)
System: Chinese hamster CHO-K1 ovary cells with stable secreted eGFP expression
Reagents: single siRNA against mouse genes, 0.8 pmol siRNA per well (2 µl of 400 nM stock)
Duration: 3 days
Read-out: 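Percent of the per-plate non-targeting control median for intracellular GFP per well by laser scanning cytometry and for cell viability by ATP luminescence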
Reading the numbers: GFP, % of control: higher = more GFP per well, higher productivity; viability (ATP), % of control: higher = more viable cells (more ATP)
Hit rule: 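Called active when intracellular GFP, relative to negative control, is at or above 120%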

no.	target gene	reagent no.	GFP, % of control	viability (ATP), % of control	call
1	Wipf1 (WAS/WASL interacting protein family, member 1)	1	60.4	56.1	inactive
2	Wipf1 (WAS/WASL interacting protein family, member 1)	2	85.3	80.2	inactive
3	Wipf1 (WAS/WASL interacting protein family, member 1)	3	90.3	92.2	inactive
4	Serpinb2 (serine (or cysteine) peptidase inhibitor, clade B, member 2)	1	41.5	94.4	inactive
5	Serpinb2 (serine (or cysteine) peptidase inhibitor, clade B, member 2)	2	66.7	66.6	inactive
6	Serpinb2 (serine (or cysteine) peptidase inhibitor, clade B, member 2)	3	56.9	75.8	inactive
7	Acp6 (acid phosphatase 6, lysophosphatidic)	1	97.4	85.7	inactive
8	Acp6 (acid phosphatase 6, lysophosphatidic)	2	99.8	97.4	inactive
9	Acp6 (acid phosphatase 6, lysophosphatidic)	3	71.1	62.2	inactive
10	Nrp1 (neuropilin 1)	1	93.1	149	inactive
11	Nrp1 (neuropilin 1)	2	63.2	81.5	inactive
12	Nrp1 (neuropilin 1)	3	68.6	76.3	inactive
13	Lipc (lipase C, hepatic type)	1	75.1	94.1	inactive
14	Lipc (lipase C, hepatic type)	2	52.8	72.6	inactive
15	Lipc (lipase C, hepatic type)	3	23.2	21.2	inactive
16	Shtn1 (shootin 1)	1	61.2	71.7	inactive
17	Shtn1 (shootin 1)	2	36.5	50.9	inactive
18	Shtn1 (shootin 1)	3	98.1	129	inactive
19	Tm9sf3 (transmembrane 9 superfamily member 3)	1	82.7	74.4	inactive
20	Tm9sf3 (transmembrane 9 superfamily member 3)	2	75.8	73.4	inactive
21	Tm9sf3 (transmembrane 9 superfamily member 3)	3	107	77.7	inactive
22	Kcnk12 (potassium channel, subfamily K, member 12)	1	56	103	inactive
23	Kcnk12 (potassium channel, subfamily K, member 12)	2	39.9	62.2	inactive
24	Kcnk12 (potassium channel, subfamily K, member 12)	3	109	112	inactive
25	Pde1a (phosphodiesterase 1A, calmodulin-dependent)	1	132	87.5	active
26	Pde1a (phosphodiesterase 1A, calmodulin-dependent)	2	71.2	80.6	inactive
27	Pde1a (phosphodiesterase 1A, calmodulin-dependent)	3	98.3	102	inactive
28	Defb14 (defensin beta 14)	1	43.1	43.9	inactive
29	Defb14 (defensin beta 14)	2	86.9	84.1	inactive
30	Defb14 (defensin beta 14)	3	87.9	70	inactive
31	Actr8 (ARP8 actin-related protein 8)	1	83.2	74.8	inactive
32	Actr8 (ARP8 actin-related protein 8)	2	76.8	70.2	inactive
33	Or8b12 (olfactory receptor family 8 subfamily B member 12)	1	88.8	69	inactive
34	Or8b12 (olfactory receptor family 8 subfamily B member 12)	2	78.4	80.3	inactive
35	Or8b12 (olfactory receptor family 8 subfamily B member 12)	3	81.6	81.4	inactive

6 successive records already listed, for reference:
no.	target gene	reagent no.	GFP, % of control	viability (ATP), % of control	call
30	Defb14 (defensin beta 14)	3	87.9	70	inactive
31	Actr8 (ARP8 actin-related protein 8)	1	83.2	74.8	inactive
32	Actr8 (ARP8 actin-related protein 8)	2	76.8	70.2	inactive
33	Or8b12 (olfactory receptor family 8 subfamily B member 12)	1	88.8	69	inactive
34	Or8b12 (olfactory receptor family 8 subfamily B member 12)	2	78.4	80.3	inactive
35	Or8b12 (olfactory receptor family 8 subfamily B member 12)	3	81.6	81.4	inactive
